Here are results for one molecule from doi:10.1101/2025.04.05.647266.

Chains of the proteins cited; added tags and fusions are not shown. Lines headed by an entry give the natural chain unless they say otherwise; changes in a name come on top.
UniProt P08476: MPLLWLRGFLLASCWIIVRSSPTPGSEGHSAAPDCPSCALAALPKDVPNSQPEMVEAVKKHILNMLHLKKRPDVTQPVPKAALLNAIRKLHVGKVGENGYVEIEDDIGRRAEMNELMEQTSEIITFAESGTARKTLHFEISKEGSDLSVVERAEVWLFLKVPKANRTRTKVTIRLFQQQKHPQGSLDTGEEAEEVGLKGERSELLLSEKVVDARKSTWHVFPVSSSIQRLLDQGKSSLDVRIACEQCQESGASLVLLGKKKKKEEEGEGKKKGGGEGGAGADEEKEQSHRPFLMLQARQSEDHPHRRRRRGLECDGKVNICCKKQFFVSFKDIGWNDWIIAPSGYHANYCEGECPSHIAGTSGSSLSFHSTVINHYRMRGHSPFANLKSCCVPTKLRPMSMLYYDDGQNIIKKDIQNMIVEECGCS

The target in this test is Inhibin beta A (INHBA) (human (endogenous in NUGC-3)) (UniProt P08476). In words: co-IP.

No constants are given. Whether binding was seen depends on the method and setting. In cells and extracts the contact can be indirect. A result given as binding can be weak or reduced; the word gives no strength.

B1: ITGA6 (α6-integrin, CD49f) (protein, UniProt P23229 24-1130)
chain: FNLDTREDNVIRKYGDPGSLFGFSLAMHWQLQPEDKRLLLVGAPRAEALPLQRANRTGGLYSCDITARGPCTRIEFDNDADPTSESKEDQWMGVTVQSQGPGGKVVTCAHRYEKRQHVNTKQESRDIFGRCYVLSQNLRIEDDMDGGDWSFCDGRLRGHEKFGSCQQGVAATFTKDFHYIVFGAPGTYNWKGIVRVEQKNNTFFDMNIFEDGPYEVGGETEHDESLVPVPANSYLGLLFLTSVSYTDPDQFVYKTRPPREQPDTFPDVMMNSYLGFSLDSGKGIVSKDEITFVSGAPRANHSGAVVLLKRDMKSAHLLPEHIFDGEGLASSFGYDVAVVDLNKDGWQDIVIGAPQYFDRDGEVGGAVYVYMNQQGRWNNVKPIRLNGTKDSMFGIAVKNIGDINQDGYPDIAVGAPYDDLGKVFIYHGSANGINTKPTQVLKGISPYFGYSIAGNMDLDRNSYPDVAVGSLSDSVTIFRSRPVINIQKTITVTPNRIDLRQKTACGAPSGICLQVKSCFEYTANPAGYNPSISIVGTLEAEKERRKSGLSSRVQFRNQGSEPKYTQELTLKRQKQKVCMEETLWLQDNIRDKLRPIPITASVEIQEPSSRRRVNSLPEVLPILNSDEPKTAHIDVHFLKEGCGDDNVCNSNLKLEYKFCTREGNQDKFSYLPIQKGVPELVLKDQKDIALEITVTNSPSNPRNPTKDGDDAHEAKLIATFPDTLTYSAYRELRAFPEKQLSCVANQNGSQADCELGNPFKRNSNVTFYLVLSTTEVTFDTPDLDINLKLETTSNQDNLAPITAKAKVVIELLLSVSGVAKPSQVYFGGTVVGEQAMKSEDEVGSLIEYEFRVINLGKPLTNLGTATLNIQWPKEISNGKWLLYLVKVESKGLEKVTCEPQKEINSLNLTESHNSRKKREITEKQIDDNRKFSLFAERKYQTLNCSVNVNCVNIRCPLRGLDSKASLILRSRLWNSTFLEEYSKLNYLDILMRAFIDVTAAAENIRLPNAGTQVRVTVFPSKTVAQYSGVPWWIILVAILAGILMLALLVFILWKCGFFKRSRYDDSVPRYHAVRIRKEEREIKDEKYIDNLEKKQWITKWNENESYS
With B1, the binding result was “binds”.
